Assay results from article doi:10.1101/2024.12.17.628858.
Where two headings read alike, the source gives them in different places. Results are given in words; binding and its absence hold for the method and conditions named. Binding seen in cells or lysates may run through a third protein. Some binding calls cover weakened binding; strength is not graded here.

By UniProt entry, the sequences of proteins in these tests, tags left out. Residues count along the entry.
UniProt O75460, residues 19-977: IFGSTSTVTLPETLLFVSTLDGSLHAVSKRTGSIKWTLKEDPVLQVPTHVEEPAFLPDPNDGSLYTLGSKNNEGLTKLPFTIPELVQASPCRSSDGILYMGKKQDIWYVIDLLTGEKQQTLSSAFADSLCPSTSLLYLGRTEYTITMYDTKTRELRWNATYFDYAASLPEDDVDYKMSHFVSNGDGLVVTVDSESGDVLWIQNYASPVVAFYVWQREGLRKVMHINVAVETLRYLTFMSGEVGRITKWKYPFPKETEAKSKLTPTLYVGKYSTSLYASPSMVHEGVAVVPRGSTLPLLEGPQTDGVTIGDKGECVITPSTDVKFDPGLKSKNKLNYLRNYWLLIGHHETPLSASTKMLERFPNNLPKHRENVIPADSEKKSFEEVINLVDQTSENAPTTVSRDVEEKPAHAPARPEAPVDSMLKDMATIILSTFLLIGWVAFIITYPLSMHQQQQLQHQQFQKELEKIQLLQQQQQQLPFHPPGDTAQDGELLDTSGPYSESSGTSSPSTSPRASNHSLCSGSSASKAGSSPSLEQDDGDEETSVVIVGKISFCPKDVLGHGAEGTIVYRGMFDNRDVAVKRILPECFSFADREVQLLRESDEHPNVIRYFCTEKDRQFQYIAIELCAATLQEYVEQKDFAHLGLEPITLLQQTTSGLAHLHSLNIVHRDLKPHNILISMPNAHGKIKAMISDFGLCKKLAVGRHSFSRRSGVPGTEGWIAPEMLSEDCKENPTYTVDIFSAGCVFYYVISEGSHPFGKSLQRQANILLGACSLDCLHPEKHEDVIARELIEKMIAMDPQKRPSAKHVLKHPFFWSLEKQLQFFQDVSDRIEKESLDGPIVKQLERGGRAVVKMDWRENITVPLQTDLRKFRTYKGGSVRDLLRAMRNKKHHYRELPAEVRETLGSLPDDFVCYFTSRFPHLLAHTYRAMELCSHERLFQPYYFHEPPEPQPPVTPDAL
UniProt Q9UGP8: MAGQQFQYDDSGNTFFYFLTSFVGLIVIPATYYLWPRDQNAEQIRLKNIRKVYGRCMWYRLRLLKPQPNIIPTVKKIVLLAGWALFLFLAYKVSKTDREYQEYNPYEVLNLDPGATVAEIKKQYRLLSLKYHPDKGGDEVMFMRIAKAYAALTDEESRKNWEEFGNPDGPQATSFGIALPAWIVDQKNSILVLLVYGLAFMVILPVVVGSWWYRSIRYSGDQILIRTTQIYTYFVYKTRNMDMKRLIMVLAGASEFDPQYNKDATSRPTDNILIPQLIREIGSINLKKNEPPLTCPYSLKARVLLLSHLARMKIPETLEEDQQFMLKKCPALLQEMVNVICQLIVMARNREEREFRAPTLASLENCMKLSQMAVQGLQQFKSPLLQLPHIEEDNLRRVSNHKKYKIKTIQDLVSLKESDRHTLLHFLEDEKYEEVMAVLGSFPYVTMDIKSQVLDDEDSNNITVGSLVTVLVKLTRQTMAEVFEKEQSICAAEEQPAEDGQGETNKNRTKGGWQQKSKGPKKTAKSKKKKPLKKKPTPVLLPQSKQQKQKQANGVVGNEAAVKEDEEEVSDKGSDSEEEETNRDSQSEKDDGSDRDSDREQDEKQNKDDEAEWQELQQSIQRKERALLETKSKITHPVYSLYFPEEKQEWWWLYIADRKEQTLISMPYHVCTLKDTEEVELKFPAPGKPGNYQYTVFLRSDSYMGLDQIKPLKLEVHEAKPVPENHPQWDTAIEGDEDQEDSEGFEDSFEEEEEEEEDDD
UniProt Q14573: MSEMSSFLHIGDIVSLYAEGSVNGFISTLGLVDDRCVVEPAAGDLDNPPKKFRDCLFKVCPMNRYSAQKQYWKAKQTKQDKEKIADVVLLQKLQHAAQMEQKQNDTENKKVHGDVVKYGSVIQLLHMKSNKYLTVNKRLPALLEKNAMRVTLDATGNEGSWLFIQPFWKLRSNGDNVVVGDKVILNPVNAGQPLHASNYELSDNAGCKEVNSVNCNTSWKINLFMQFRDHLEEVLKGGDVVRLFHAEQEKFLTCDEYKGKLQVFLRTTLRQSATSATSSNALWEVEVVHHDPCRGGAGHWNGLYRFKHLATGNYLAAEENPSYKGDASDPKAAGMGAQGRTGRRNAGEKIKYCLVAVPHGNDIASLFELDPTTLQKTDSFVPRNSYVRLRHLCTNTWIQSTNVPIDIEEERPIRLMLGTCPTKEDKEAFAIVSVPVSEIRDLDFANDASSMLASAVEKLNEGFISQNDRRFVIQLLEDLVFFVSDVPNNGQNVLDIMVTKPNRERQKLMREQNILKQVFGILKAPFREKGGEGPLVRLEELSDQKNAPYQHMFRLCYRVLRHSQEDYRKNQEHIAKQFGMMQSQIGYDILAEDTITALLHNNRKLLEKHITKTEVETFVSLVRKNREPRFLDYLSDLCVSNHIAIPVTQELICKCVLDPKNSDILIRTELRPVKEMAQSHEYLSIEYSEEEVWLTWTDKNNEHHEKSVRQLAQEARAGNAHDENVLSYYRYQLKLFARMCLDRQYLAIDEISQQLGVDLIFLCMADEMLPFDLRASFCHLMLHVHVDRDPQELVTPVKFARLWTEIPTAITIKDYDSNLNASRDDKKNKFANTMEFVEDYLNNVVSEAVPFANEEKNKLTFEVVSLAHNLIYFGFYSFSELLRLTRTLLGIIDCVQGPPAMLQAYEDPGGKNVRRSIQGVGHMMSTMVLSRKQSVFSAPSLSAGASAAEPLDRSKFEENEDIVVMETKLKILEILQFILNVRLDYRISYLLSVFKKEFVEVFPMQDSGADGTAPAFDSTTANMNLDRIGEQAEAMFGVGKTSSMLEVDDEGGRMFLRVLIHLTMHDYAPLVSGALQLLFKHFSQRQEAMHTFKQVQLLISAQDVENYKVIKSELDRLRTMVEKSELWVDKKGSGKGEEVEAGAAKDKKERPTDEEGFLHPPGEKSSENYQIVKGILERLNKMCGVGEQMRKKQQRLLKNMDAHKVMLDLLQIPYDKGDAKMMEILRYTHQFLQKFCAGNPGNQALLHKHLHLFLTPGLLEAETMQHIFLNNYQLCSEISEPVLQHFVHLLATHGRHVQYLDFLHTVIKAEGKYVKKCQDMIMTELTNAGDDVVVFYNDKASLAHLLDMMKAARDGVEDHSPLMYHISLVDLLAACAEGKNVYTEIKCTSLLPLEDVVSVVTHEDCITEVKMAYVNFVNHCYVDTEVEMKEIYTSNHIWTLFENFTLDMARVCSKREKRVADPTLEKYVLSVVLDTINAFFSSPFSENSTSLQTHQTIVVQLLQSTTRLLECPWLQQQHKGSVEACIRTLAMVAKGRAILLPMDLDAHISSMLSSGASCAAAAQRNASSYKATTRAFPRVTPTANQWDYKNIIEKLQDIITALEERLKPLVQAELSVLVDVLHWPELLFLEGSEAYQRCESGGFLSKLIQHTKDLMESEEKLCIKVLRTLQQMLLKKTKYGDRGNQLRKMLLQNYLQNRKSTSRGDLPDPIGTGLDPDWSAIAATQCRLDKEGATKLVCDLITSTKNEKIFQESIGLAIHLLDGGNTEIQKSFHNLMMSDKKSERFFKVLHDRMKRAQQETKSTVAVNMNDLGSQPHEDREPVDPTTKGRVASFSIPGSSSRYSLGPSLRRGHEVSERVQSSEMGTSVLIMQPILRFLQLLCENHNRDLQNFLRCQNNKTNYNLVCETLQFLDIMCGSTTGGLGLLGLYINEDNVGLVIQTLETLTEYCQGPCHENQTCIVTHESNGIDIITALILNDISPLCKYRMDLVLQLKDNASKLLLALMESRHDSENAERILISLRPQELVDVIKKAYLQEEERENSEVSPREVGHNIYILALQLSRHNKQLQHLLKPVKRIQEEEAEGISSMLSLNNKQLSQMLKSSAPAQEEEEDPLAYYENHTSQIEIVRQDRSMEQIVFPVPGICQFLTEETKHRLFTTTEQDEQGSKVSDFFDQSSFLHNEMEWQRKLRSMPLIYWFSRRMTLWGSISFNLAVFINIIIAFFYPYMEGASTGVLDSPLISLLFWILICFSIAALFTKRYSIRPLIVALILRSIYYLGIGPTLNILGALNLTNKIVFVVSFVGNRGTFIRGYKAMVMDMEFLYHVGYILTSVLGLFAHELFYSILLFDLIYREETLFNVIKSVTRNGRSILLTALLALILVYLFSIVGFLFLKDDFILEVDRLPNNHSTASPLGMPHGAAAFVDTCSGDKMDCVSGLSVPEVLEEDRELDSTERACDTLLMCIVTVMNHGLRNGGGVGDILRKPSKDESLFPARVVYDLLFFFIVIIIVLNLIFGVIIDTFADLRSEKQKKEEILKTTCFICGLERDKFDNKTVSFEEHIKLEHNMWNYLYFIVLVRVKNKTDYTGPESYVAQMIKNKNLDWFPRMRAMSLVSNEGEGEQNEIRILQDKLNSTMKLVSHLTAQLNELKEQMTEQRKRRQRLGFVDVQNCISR

B1: RPN1 (protein, UniProt P04843 24-607)
chain: ASSEAPPLINEDVKRTVDLSSHLAKVTAEVVLAHLGGGSTSRATSFLLALEPELEARLAHLGVQVKGEDEEENNLEVRETKIKGKSGRFFTVKLPVALDPGAKISVIVETVYTHVLHPYPTQITQSEKQFVVFEGNHYFYSPYPTKTQTMRVKLASRNVESYTKLGNPTRSEDLLDYGPFRDVPAYSQDTFKVHYENNSPFLTITSMTRVIEVSHWGNIAVEENVDLKHTGAVLKGPFSRYDYQRQPDSGISSIRSFKTILPAAAQDVYYRDEIGNVSTSHLLILDDSVEMEIRPRFPLFGGWKTHYIVGYNLPSYEYLYNLGDQYALKMRFVDHVFDEQVIDSLTVKIILPEGAKNIEIDSPYEISRAPDELHYTYLDTFGRPVIVAYKKNLVEQHIQDIVVHYTFNKVLMLQEPLLVVAAFYILFFTVIIYVRLDFSITKDPAAEARMKVACITEQVLTLVNKRIGLYRHFDETVNRYKQSRDISTLNSGKKSLETEHKALTSEIALLQSRLKTEGSDLCDRVSEMQKLDAQVKELVLKSAVEAERLVAGKLKKDTYIENEKLISGKRQELVTKIDHILDAL

Experiments:
[1] = target: full length IRE1 (triple FLAG tagged) (UniProt O75460); assay: co-IP
[2] = target: full length IRE1 (triple FLAG tagged) (UniProt O75460); assay: co-IP; remark: listed apart in the source

binding [1]	binding [2]	Molecule
binds		SEC63 (from UniProt Q9UGP8 1-760)
binds		ITPR3 (from UniProt Q14573 1-2671)
binds		GCN1 (from UniProt Q92616 1-2671)
	binds	B1
